Measurements: publication PMC9922296, “Mechanistic insights into RNA surveillance by the canonical poly(A) polymerase Pla1 of the MTREC complex” (Nature Communications, 2023)

How the values were obtained:
[1] = molecular target: T1, C-terminally Flag-ProtA-tagged Red1 Δ288-345 deletion mutant (S. pombe) (UniProt Q9UTR8); assay: affinity purification with mass spectrometry; tandem affinity purification (IgG beads, TEV cleavage with Benzonase, anti-Flag beads, Flag peptide elution) of Red1-FTP from S. pombe extracts; TMT 10plex mass spectrometry of the final eluates
T1 sequence: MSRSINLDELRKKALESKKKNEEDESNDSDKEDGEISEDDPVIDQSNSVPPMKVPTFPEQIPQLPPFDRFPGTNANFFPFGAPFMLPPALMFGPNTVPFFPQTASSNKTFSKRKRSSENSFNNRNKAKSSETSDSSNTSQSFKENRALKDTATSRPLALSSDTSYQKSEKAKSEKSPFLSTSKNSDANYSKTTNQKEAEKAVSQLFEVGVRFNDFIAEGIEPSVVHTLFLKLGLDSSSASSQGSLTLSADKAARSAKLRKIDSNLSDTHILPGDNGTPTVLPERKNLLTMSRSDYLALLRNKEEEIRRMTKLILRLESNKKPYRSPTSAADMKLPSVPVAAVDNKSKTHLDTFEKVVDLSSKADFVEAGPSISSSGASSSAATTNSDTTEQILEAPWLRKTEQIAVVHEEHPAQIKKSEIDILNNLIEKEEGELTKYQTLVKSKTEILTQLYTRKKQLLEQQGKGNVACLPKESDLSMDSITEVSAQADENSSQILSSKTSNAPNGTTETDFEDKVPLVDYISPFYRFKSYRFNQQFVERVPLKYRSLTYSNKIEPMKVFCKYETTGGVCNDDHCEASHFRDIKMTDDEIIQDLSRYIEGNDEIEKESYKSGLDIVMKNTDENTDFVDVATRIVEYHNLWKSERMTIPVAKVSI

[2] = molecular target: T2, C-terminally Flag-ProtA-tagged wild-type Red1 (S. pombe) (UniProt Q9UTR8); assay: as above
T2 sequence: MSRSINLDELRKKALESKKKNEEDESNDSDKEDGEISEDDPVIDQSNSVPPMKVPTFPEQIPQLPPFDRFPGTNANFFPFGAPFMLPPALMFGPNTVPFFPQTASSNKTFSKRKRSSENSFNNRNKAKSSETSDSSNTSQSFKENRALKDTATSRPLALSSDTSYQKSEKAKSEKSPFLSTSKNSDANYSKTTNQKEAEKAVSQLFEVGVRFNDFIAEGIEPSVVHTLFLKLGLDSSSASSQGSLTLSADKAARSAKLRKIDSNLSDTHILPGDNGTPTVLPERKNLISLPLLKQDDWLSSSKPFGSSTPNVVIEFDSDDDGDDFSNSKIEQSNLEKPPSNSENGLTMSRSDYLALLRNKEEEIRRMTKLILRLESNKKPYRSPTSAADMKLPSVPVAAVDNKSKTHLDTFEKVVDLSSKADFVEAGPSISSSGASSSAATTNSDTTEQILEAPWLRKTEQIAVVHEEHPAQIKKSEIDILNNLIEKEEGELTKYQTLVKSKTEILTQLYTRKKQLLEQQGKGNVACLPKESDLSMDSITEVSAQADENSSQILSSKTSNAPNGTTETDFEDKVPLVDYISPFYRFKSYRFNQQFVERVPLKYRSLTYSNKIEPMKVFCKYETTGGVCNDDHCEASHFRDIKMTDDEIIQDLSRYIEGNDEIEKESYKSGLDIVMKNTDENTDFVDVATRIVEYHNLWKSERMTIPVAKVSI

B1: Pla1 subunit of the MTREC complex, endogenous (enzyme, UniProt Q10295 1-566)
chain: MTTKQWGITPPISTAPATEQENALNTALINELKNQNLFESPAESEKRVKVLDELQQITTEFVKKVSLAKHMNEKMANEAGGKIFTYGSYRLGVYGPGSDIDTLVVVPKHVSRDNFFQDLEPMLREREEVTDLAAVPDAYVPIIKFKFLGISIDLIFARLSVPRVPRDLELSDNNLLKGVEERCVLSLNGTRVTDQILQLVPNRAVFKHALRAIKFWAQRRAIYANVVGFPGGVAWAMMVARICQLYPNAVSSVIVAKFFRILHQWNWPQPILLKPIEDGPLQVRIWNPKLYPSDKAHRMPIITPAYPSMCATHNITLSTQTIILREMVRAGEIADQIMVKALPWSALFQKHDFFHRYKHYLTITAAAKTAEAQLKWAGLVESKLRHLVTRLELVDAIALAHPFNKGFDKVYNCSSEEEAQQVASGVTLEVAYESTDHEKLANDTVNEEKADNTESKADGSENGEKQIFPVYTTTCYIGLELEKKKGHPIKRLDISWPTQEFYELCKKWDKYDDTLMNVFIKNTKNTALPDEVFEPGEERPKATKKRSTADTAHSTEQLKRQKVSTA
binding [1]: no binding
binding [2]: binds

These are yes or no findings as the source states them, for the method shown. Binding seen in cells or lysates may run through a third protein. A yes stands for co-enrichment or nearness to the bait. Other partners may have been found. For some assays here: A no says only that the protein was not detected with the bait. Tags and fused reporters may be left off the sequences shown.
